The supplement of paper PMC12823440, “Inhibitors supercharge kinase turnover through native proteolytic circuits” (Nature, 2025)
The other results are listed elsewhere or left out. Hit calls seldom repeat between salt and free forms of one compound.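 Kinases were expressed as nanoluciferase fusions in K562 cells and luminescence was read every 4 h between 2 and 18 h as percent of control, DMSO set to 100% and a positive control to 0%. A time point counts as decreased when the signal drops significantly (2 sigma). The hit call is the authors' own, does not follow from the count of time points alone, and its rule is not shown.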

Protein sequences, listed by entry. Tags and fused reporters are not part of them. Lines headed by an entry give the natural chain unless they say otherwise; changes in a name come on top.
UniProt P42680: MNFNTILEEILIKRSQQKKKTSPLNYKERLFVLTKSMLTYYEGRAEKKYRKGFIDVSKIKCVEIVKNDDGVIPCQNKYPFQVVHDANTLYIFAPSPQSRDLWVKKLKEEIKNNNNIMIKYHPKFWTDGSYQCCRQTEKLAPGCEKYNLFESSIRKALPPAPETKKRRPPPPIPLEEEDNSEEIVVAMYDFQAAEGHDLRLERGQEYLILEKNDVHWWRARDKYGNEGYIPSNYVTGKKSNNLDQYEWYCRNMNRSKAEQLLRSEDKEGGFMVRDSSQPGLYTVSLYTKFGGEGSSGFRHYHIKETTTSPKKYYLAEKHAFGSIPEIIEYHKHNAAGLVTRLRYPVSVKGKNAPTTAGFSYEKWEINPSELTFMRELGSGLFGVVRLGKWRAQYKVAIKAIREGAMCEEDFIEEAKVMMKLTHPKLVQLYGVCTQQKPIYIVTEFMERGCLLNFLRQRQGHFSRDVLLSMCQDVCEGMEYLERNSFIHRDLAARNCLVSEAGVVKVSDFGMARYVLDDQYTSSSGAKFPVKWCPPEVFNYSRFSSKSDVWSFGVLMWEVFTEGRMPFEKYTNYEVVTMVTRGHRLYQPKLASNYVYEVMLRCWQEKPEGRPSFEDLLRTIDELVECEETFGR
UniProt Q6PHR2: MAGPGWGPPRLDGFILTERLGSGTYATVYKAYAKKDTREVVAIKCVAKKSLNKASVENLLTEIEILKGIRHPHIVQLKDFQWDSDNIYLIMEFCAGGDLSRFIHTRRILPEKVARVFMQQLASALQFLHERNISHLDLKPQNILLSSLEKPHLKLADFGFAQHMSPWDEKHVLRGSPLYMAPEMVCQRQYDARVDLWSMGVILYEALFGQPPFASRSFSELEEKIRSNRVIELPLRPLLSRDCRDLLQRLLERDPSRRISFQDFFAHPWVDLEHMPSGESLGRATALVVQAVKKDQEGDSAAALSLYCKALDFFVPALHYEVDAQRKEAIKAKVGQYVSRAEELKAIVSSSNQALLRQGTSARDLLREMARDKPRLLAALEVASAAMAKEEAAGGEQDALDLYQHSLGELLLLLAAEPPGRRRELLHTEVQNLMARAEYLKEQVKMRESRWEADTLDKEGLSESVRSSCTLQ
UniProt P07947, whole entry, looked up: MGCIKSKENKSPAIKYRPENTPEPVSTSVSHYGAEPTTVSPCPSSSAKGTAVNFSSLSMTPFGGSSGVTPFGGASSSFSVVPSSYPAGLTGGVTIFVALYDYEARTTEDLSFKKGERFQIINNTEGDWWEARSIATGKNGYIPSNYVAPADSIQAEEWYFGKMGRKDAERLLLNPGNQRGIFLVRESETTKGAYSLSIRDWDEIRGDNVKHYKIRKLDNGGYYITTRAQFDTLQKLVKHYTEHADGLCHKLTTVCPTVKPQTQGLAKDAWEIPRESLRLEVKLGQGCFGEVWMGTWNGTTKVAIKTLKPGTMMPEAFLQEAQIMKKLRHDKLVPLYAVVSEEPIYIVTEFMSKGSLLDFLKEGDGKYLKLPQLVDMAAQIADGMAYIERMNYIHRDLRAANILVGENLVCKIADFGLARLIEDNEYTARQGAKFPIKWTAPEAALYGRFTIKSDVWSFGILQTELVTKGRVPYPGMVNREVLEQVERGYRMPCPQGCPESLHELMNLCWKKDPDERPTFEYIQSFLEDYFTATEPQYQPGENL
UniProt P43403: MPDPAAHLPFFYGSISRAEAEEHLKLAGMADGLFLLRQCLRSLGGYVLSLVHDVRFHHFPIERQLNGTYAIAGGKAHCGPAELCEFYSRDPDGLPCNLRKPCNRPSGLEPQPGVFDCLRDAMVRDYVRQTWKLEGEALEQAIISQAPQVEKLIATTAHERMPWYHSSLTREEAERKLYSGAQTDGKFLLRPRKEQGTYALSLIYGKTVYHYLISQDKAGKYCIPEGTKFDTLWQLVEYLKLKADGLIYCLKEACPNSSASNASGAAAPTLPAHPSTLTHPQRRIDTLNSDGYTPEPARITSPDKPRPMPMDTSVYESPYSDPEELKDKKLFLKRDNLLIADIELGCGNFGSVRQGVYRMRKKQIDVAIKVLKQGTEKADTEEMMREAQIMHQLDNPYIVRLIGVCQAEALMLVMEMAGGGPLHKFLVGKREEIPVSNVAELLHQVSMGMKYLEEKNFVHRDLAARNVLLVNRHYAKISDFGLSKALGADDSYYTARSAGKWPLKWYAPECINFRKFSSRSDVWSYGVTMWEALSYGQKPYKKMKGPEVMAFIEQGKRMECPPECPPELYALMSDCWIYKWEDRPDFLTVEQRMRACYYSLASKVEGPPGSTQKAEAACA
UniProt P31749: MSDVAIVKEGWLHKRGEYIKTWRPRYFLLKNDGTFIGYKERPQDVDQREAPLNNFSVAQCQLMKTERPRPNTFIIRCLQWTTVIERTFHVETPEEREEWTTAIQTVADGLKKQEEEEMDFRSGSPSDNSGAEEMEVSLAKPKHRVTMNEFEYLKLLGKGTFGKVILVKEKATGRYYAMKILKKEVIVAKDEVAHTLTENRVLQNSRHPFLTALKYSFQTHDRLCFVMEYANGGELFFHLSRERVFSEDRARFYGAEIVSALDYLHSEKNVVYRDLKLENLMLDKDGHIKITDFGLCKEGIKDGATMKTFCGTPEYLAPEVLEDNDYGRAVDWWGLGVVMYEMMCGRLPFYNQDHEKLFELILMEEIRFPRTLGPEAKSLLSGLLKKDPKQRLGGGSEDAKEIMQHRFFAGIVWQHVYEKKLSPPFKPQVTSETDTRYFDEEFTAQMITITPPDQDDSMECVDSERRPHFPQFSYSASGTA
UniProt P10398: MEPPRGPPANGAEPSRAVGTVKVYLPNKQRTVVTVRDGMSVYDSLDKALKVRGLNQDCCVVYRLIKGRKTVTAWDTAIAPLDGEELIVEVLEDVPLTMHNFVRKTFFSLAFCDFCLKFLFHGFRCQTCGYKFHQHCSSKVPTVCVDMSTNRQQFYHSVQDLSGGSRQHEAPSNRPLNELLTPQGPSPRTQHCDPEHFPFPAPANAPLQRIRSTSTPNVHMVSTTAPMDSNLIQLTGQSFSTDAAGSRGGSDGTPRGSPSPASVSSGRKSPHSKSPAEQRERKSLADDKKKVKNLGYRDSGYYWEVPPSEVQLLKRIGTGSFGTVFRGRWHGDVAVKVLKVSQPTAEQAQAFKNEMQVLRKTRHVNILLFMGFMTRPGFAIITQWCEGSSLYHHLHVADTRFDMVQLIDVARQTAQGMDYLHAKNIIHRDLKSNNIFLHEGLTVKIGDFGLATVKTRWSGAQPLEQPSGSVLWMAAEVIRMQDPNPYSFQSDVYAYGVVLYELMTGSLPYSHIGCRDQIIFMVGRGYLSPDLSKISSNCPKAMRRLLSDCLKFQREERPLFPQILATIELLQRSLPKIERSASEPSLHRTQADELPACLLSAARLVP
UniProt O14965: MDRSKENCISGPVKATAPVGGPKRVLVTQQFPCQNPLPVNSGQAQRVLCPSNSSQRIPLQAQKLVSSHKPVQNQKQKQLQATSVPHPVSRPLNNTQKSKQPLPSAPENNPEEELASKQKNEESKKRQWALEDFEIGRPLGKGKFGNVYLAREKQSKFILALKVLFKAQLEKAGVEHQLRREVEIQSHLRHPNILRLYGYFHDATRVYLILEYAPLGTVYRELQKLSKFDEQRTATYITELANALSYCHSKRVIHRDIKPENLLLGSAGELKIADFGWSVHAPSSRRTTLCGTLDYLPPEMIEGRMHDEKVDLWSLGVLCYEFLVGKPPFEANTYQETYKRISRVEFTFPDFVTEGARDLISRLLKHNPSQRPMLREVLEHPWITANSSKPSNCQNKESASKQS
UniProt Q96GD4, whole entry: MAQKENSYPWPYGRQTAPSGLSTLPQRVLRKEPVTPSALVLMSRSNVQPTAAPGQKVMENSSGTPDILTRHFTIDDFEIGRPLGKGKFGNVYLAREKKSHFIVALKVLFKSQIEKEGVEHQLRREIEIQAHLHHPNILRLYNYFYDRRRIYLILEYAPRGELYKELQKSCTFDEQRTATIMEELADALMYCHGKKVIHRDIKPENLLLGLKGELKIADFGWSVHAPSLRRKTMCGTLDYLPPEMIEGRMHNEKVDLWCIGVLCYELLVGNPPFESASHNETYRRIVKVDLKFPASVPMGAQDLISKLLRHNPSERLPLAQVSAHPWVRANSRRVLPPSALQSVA
UniProt Q9UQB9: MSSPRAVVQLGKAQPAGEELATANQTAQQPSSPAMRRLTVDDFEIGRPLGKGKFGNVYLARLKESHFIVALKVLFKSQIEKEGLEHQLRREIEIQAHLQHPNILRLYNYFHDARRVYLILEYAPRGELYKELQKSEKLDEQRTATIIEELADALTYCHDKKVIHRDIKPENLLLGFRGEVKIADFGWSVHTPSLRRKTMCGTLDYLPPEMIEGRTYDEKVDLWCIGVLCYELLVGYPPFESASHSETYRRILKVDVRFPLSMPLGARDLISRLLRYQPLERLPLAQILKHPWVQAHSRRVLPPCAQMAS
UniProt P51813: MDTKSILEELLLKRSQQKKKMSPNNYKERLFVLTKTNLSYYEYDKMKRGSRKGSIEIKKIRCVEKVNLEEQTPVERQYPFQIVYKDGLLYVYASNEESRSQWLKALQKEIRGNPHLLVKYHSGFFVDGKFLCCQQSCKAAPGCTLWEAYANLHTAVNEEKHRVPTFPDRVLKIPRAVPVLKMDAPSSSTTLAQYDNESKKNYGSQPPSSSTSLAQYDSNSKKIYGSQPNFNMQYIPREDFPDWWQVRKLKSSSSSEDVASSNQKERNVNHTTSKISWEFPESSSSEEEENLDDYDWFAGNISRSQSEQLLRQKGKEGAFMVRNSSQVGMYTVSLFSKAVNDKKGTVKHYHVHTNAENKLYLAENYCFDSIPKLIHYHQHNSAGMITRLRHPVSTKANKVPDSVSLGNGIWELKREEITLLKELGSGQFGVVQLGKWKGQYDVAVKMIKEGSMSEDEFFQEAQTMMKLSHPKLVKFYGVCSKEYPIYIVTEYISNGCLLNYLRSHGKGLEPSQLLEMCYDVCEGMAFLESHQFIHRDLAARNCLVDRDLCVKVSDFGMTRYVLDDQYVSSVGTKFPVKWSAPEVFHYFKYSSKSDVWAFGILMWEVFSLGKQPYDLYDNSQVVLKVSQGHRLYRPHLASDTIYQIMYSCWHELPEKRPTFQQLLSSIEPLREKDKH
UniProt P15056, whole entry, looked up: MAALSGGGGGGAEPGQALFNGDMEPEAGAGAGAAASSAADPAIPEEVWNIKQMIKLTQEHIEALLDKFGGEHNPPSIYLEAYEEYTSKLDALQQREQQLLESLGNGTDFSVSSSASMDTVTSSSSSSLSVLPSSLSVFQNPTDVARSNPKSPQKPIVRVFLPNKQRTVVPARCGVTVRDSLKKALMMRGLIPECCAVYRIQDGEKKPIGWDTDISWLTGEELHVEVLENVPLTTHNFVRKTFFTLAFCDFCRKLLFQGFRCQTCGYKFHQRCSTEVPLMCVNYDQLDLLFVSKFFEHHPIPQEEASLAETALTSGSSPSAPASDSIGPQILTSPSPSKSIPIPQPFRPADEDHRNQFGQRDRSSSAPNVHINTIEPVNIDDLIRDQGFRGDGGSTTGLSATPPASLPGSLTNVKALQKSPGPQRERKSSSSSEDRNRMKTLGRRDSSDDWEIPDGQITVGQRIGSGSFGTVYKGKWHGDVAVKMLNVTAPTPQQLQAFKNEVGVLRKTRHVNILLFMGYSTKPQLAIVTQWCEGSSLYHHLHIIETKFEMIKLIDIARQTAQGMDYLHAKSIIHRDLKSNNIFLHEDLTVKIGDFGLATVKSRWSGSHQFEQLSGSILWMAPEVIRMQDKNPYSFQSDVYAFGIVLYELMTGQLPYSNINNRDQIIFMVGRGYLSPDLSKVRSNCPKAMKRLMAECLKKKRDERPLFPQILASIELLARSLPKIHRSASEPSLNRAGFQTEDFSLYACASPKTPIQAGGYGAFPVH
UniProt Q06187: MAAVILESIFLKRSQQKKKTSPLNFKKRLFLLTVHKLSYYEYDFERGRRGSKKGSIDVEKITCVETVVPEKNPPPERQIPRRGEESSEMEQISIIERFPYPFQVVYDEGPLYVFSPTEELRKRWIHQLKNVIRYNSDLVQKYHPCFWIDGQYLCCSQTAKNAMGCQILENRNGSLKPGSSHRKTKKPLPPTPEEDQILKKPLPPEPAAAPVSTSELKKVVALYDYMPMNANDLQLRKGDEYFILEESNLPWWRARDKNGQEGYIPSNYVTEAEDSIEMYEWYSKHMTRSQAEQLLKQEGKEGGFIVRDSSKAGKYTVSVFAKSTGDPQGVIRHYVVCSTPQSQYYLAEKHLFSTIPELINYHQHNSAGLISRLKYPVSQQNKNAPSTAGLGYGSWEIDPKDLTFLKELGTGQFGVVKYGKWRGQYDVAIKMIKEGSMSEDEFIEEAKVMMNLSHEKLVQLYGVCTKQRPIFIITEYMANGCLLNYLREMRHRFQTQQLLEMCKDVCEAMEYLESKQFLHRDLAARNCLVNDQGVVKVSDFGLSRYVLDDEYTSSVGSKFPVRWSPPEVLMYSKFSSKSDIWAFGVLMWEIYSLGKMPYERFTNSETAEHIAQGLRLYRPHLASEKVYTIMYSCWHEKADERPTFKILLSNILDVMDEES

How the values were obtained:
Details in all cases: K562; 2-18 h
STK38 = STK38 (UniProt Q15208); experiment: kinase-Nluc reporter destabilization hit call (1 = scored as downregulated) (binary); higher = compound decreases kinase abundance
SYK = SYK (UniProt P43405); experiment: as above
TEC = TEC (UniProt P42680); experiment: as above
TYK2 = TYK2 (UniProt P29597); experiment: as above
ULK3 = ULK3 (UniProt Q6PHR2); experiment: as above
YES1 = YES1 (UniProt P07947); experiment: as above
ZAK = ZAK (UniProt Q9NYL2); experiment: as above
ZAP70 = ZAP70 (UniProt P43403); experiment: as above
ABL1 = ABL1 (UniProt P00519); experiment: number of time points (of 5) at which kinase-Nluc abundance scored as decreased, DMSO-normalised (count); higher = more persistent destabilization
AKT1 = AKT1 (UniProt P31749); experiment: as above
ALK = ALK (UniProt Q9UM73); experiment: as above
ARAF = ARAF (UniProt P10398); experiment: as above
AURKA = AURKA (UniProt O14965); experiment: as above
AURKB = AURKB (UniProt Q96GD4); experiment: as above
AURKC = AURKC (UniProt Q9UQB9); experiment: as above
BLK = BLK (UniProt P51451); experiment: as above
BMX = BMX (UniProt P51813); experiment: as above
BRAF = BRAF (UniProt P15056); experiment: as above
BRAF_V600E = experiment: as above
BTK = BTK (UniProt Q06187); experiment: as above

Row | SMILES | kinase-Nluc reporter destabilization hit call (STK38) | kinase-Nluc reporter destabilization hit call (SYK) | kinase-Nluc reporter destabilization hit call (TEC) | kinase-Nluc reporter destabilization hit call (TYK2) | kinase-Nluc reporter destabilization hit call (ULK3) | kinase-Nluc reporter destabilization hit call (YES1) | kinase-Nluc reporter destabilization hit call (ZAK) | kinase-Nluc reporter destabilization hit call (ZAP70) | number of time points (ABL1) | number of time points (AKT1) | number of time points (ALK) | number of time points (ARAF) | number of time points (AURKA) | number of time points (AURKB) | number of time points (AURKC) | number of time points (BLK) | number of time points (BMX) | number of time points (BRAF) | number of time points (BRAF_V600E) | number of time points (BTK)
1 | O=C(O)c1cc(O)c2c(c1)[C@@H]([C@H]1c3cc(C(=O)O)cc(O)c3C(=O)c3c(O[C@@H]4O[C@H](CO)[C@@H](O)[C@H](O)[C@H]4O)cccc31)c1cccc(O[C@@H]3O[C@H](CO)[C@@H](O)[C@H](O)[C@H]3O)c1C2=O [Sennoside B] (2.5 µM) | inactive: 0 | inactive: 0 | inactive: 0 | inactive: 0 | inactive: 0 | inactive: 0 | inactive: 0 | inactive: 0 | 0 | 0 | 0 | 0 | 0 | 0 | 0 | 0 | 0 | 0 | 0 | 0
2 | Cc1cc2ncc(-c3ccccc3)nc2cc1C (10 µM) | inactive: 0 | inactive: 0 | inactive: 0 | inactive: 0 | inactive: 0 | inactive: 0 | inactive: 0 | inactive: 0 | 0 | 0 | 0 | 0 | 0 | 0 | 0 | 0 | 0 | 0 | 0 | 0
3 | COc1ccc(CCNc2ncc3c(=O)n(-c4cccc(F)c4)c(=O)[nH]c3n2)cc1OC (2 µM) | inactive: 0 | inactive: 0 | inactive: 0 | inactive: 0 | inactive: 0 | inactive: 0 | inactive: 0 | inactive: 0 | 0 | 0 | 0 | 0 | 0 | 0 | 0 | 0 | 0 | 0 | 0 | 0
4 | C=C[C@H]1[C@H](O[C@@H]2O[C@H](CO)[C@@H](O)[C@H](O)[C@H]2OC(=O)c2c(O)cc(O)cc2-c2cccc(O)c2)OC=C2C(=O)OCC[C@H]21 [Amarogentin] (10 µM) | inactive: 0 | inactive: 0 | inactive: 0 | inactive: 0 | inactive: 0 | inactive: 0 | inactive: 0 | inactive: 0 | 0 | 0 | 0 | 0 | 0 | 0 | 0 | 0 | 0 | 0 | 0 | 0
5 | CC(C)c1ccc(CC(=O)N2CCN(c3ccc(C#N)nn3)CC2)cc1 (10 µM) | inactive: 0 | inactive: 0 | inactive: 0 | inactive: 0 | inactive: 0 | inactive: 0 | inactive: 0 | inactive: 0 | 0 | 0 | 0 | 0 | 0 | 0 | 0 | 0 | 0 | 0 | 0 | 0
6 | Nc1ncc(-c2ccc(C(=O)N3CCNCC3)cc2)nc1-c1ccc(C(F)(F)F)cc1 (10 µM) | inactive: 0 | inactive: 0 | inactive: 0 | inactive: 0 | inactive: 0 | inactive: 0 | inactive: 0 | inactive: 0 | 0 | 0 | 0 | 0 | 0 | 0 | 0 | 0 | 0 | 0 | 0 | 0
7 | O=C(O)c1ccc(N2N=C(Cc3ccccc3)C(=Cc3ccc(-c4ccccc4F)o3)C2=O)cc1 (10 µM) | inactive: 0 | inactive: 0 | inactive: 0 | inactive: 0 | inactive: 0 | inactive: 0 | inactive: 0 | inactive: 0 | 0 | 0 | 0 | 0 | 0 | 0 | 0 | 0 | 0 | 0 | 0 | 0
8 | C=CC(=O)Nc1cccc(Oc2nc(Nc3ccc(N4CCN(C)CC4)cc3)nc3ccoc23)c1 [Poseltinib] (10 µM) | inactive: 0 | inactive: 0 | inactive: 0 | inactive: 0 | inactive: 0 | inactive: 0 | inactive: 0 | inactive: 0 | 0 | 0 | 0 | 0 | 0 | 0 | 0 | 0 | 0 | 0 | 0 | 0
9 | CCc1cccc(CC)c1NC(=O)c1nn(C)c2c1CCc1cnc(Nc3ccc(C(=O)NC4CCN(C)CC4)cc3OC(F)(F)F)nc1-2 (2 µM) | inactive: 0 | inactive: 0 | inactive: 0 | inactive: 0 | inactive: 0 | inactive: 0 | inactive: 0 | inactive: 0 | 0 | 0 | 0 | 0 | 0 | 0 | 0 | 0 | 0 | 0 | 0 | 0
10 | CC[C@H](Nc1ncnc2[nH]cnc12)c1oc2ccccc2c(=O)c1-c1cccc(F)c1 [Tenalisib] (10 µM) | inactive: 0 | inactive: 0 | inactive: 0 | inactive: 0 | inactive: 0 | inactive: 0 | inactive: 0 | inactive: 0 | 0 | 0 | 0 | 0 | 0 | 0 | 0 | 0 | 0 | 0 | 0 | 0
11 | Nc1nc2cc(-c3ccc4ncc(C(=O)N5CCOCC5)n4c3)ccc2o1 [Serabelisib] (10 µM) | inactive: 0 | inactive: 0 | inactive: 0 | inactive: 0 | inactive: 0 | inactive: 0 | inactive: 0 | inactive: 0 | 0 | 0 | 0 | 0 | 0 | 0 | 0 | 0 | 0 | 0 | 0 | 0
12 | c1ccc(-c2nn3c(c2-c2ccnc4cc(OCCN5CCOCC5)ccc24)CCC3)nc1 (10 µM) | inactive: 0 | inactive: 0 | inactive: 0 | inactive: 0 | inactive: 0 | inactive: 0 | inactive: 0 | inactive: 0 | 0 | 0 | 0 | 0 | 0 | 0 | 0 | 0 | 0 | 0 | 0 | 0
13 | Nc1cc(C(F)F)c(-c2nc(N3C4CCC3COC4)nc(N3C4CCC3COC4)n2)cn1 (2.5 µM) | inactive: 0 | inactive: 0 | inactive: 0 | inactive: 0 | inactive: 0 | inactive: 0 | inactive: 0 | inactive: 0 | 0 | 0 | 0 | 0 | 0 | 0 | 0 | 0 | 4 | 3 | 0 | 0
14 | O=c1ccoc2cc(O)ccc12 [7-Hydroxy-4H-chromen-4-one] (10 µM) | inactive: 0 | inactive: 0 | inactive: 0 | inactive: 0 | inactive: 0 | inactive: 0 | inactive: 0 | inactive: 0 | 0 | 0 | 0 | 0 | 0 | 0 | 0 | 0 | 0 | 0 | 0 | 0
15 | COc1c(C)c(C(=O)c2ccc(N)c(C(=O)O)c2)n2ccccc12 (10 µM) | inactive: 0 | inactive: 0 | inactive: 0 | inactive: 0 | inactive: 0 | inactive: 0 | inactive: 0 | inactive: 0 | 0 | 0 | 0 | 0 | 0 | 0 | 0 | 0 | 0 | 0 | 0 | 0
16 | Cc1nc(NC(=O)NCCc2nnn(CCF)n2)sc1-c1ccc(S(C)(=O)=O)c(F)c1 (10 µM) | inactive: 0 | inactive: 0 | inactive: 0 | inactive: 0 | inactive: 0 | inactive: 0 | inactive: 0 | inactive: 0 | 0 | 0 | 0 | 0 | 0 | 0 | 0 | 0 | 0 | 0 | 0 | 0
17 | CN(C)Cc1cccc(N=C(c2ccccc2)c2c(O)[nH]c3cc(C(=O)N(C)C)ccc23)c1 (10 µM) | inactive: 0 | inactive: 0 | inactive: 0 | inactive: 0 | inactive: 0 | inactive: 0 | inactive: 0 | inactive: 0 | 0 | 0 | 0 | 0 | 0 | 0 | 0 | 0 | 0 | 0 | 0 | 0

Reprinted at random: 2 records from the list
Row | SMILES | kinase-Nluc reporter destabilization hit call (STK38) | kinase-Nluc reporter destabilization hit call (SYK) | kinase-Nluc reporter destabilization hit call (TEC) | kinase-Nluc reporter destabilization hit call (TYK2) | kinase-Nluc reporter destabilization hit call (ULK3) | kinase-Nluc reporter destabilization hit call (YES1) | kinase-Nluc reporter destabilization hit call (ZAK) | kinase-Nluc reporter destabilization hit call (ZAP70) | number of time points (ABL1) | number of time points (AKT1) | number of time points (ALK) | number of time points (ARAF) | number of time points (AURKA) | number of time points (AURKB) | number of time points (AURKC) | number of time points (BLK) | number of time points (BMX) | number of time points (BRAF) | number of time points (BRAF_V600E) | number of time points (BTK)
10 | CC[C@H](Nc1ncnc2[nH]cnc12)c1oc2ccccc2c(=O)c1-c1cccc(F)c1 [Tenalisib] (10 µM) | inactive: 0 | inactive: 0 | inactive: 0 | inactive: 0 | inactive: 0 | inactive: 0 | inactive: 0 | inactive: 0 | 0 | 0 | 0 | 0 | 0 | 0 | 0 | 0 | 0 | 0 | 0 | 0
12 | c1ccc(-c2nn3c(c2-c2ccnc4cc(OCCN5CCOCC5)ccc24)CCC3)nc1 (10 µM) | inactive: 0 | inactive: 0 | inactive: 0 | inactive: 0 | inactive: 0 | inactive: 0 | inactive: 0 | inactive: 0 | 0 | 0 | 0 | 0 | 0 | 0 | 0 | 0 | 0 | 0 | 0 | 0
